Data from the supplement of paper PMC3334620.
Whole data set: some 33,000 sequences, median “E-score (-0.5 to 0.5)” near -0.015, cut for the highest 2% near 0.3. This is one part of the list.

molecular target: T1, Abf1 (UniProt P14164); experiment: PBM E-score (8-mer binding enrichment) (E-score (-0.5 to 0.5)); higher = stronger / more preferred TF binding; conditions: protein concentration: 200 nM; construct: GST-full length
T1 sequence: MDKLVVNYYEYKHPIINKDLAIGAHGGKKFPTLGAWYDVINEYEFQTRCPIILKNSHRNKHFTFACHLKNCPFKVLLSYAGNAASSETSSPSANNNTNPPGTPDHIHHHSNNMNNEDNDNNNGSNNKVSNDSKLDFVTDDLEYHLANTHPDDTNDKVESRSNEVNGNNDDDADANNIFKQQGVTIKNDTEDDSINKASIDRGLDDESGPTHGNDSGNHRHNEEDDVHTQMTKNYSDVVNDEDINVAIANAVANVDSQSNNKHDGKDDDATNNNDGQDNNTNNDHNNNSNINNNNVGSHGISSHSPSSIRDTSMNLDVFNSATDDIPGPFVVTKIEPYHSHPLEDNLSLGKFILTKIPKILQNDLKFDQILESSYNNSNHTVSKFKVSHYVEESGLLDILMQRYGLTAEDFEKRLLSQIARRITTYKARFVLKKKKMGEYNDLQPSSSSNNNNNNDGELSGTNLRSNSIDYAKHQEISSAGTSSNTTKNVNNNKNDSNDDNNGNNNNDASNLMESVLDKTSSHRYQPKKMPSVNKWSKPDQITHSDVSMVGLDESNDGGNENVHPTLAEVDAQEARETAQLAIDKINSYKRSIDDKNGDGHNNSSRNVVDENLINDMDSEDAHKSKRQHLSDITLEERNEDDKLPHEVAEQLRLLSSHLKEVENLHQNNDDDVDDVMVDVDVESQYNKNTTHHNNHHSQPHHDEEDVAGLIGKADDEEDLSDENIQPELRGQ
How it was run: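 Yeast transcription factors, full-length or as DNA-binding domains, were expressed with a GST tag using PURExpress in vitro transcription/translation. At about 100-200 nM they were applied to universal all-10-mer Agilent arrays, double-stranded by primer extension on fresh or once-stripped slides. Fluorescent anti-GST detected bound protein, and masliner normalised the scans. E-scores for ungapped eight-base words, pooled with reverse complements, came from the Universal PBM Analysis Suite.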

Sequence | PBM E-score
CGTTAGAC | 0.161
ATTCGCAC | -0.0126
AGGCCGCG | -0.145
CAAACTCG | -0.109
AGTATGAG | 0.0175
AATGGTTG | -0.0278
CGGATGCC | 0.0886
AATATTGG | 0.0158
AAAACGAA | 0.167
AGCCCGTC | -0.0082
CACATATA | -0.0348
TGAAGTCA | 0.0804
CATTGATA | 0.151
ACAGACGT | -0.0318
GCCACCCC | -0.16
CATGAACA | 0.0948
AATTCTCC | -0.102
GCCTATTA | -0.113
CACGACAG | 0.211
CCCTGGAC | 0.0237
CAGTATAA | 0.0392
AAACAGTC | -0.136
GCCTAGAC | -0.11
GATACTCC | 0.102
AGCGAATC | -0.0504

Sequence | PBM E-score
ACATTGCC | 0.115
CGGGAGAG | -0.201
CGAGTCGA | 0.00432
TCGTTTCA | 0.293
CTTGACGA | 0.149
GATACCAA | 0.148
CAAAAAAG | 0.137
ACGTGGTA | 0.148
AAAGTATG | 0.0323
CATCGCGC | 0.0864
CTCGCAAC | 0.128
GCCTACGC | -0.0487
AATAATAG | -0.0144
TCTGCTAA | -0.0111
CCCACGCA | 0.0232
ATTAATCC | -0.0669
AGTTAATG | 0.155
ACGTGGTC | 0.155
CTTGCTAC | -0.0171
ACTGGATA | 0.122
ATGTAGGG | -0.256
AACCCCGT | 0.0712
ACACTTAA | -0.0289
TAGAGATA | 0.136
CCGACGTC | 0.139

Sequence | PBM E-score
ACTGATAA | 0.126
CTGGGCAC | -0.0891
CATACTAA | 0.105
CTATTCTC | -0.0913
ACTCCTCT | -0.146
ATCTGTCC | 0.00463
CGGCTTAC | 0.0369
AAGGAAAT | -0.0972
CGAGAGTC | -0.0578
AGTTGTAC | 0.0977
AAGAACAG | 0.0569
CGCAGCAG | -0.0221
GTGCCGAA | 0.177
AGGCAGGA | 0.0503
GACAGCAC | -0.0499
GACAGAAA | 0.0767
AGCGGGTC | -0.0485
CCATGGAG | -0.208
CAAAGAAG | -0.0247
AAGAGAAC | 0.0218
ATATGGGA | -0.173
CCTAGCCA | -0.0706
AACTCGCA | 0.00732
GCACATTA | 0.098
AGGAGGGG | -0.338

Sequence | PBM E-score
AAATTGAA | -0.0312
CTCACGAA | 0.155
TGGTACAA | -0.0456
ACTAATCC | 0.0179
ATTGGATC | 0.124
CGGGAGGC | -0.326
CTGAGTTA | -0.0779
AACCGCGG | -0.163
GCCTGCCC | -0.332
TATTATGA | 0.0866
GAGGGCCC | -0.223
AAGCGCCT | -0.201
GCATTGGC | -0.278
TAGGCATA | -0.151
CGAATTTA | 0.146
ACCCCTGC | -0.307
GCAATGTA | 0.0375
CACTTTGA | 0.025
AGGGTGGG | -0.0843
ACGCGTGC | -0.0153
ACCAAAGC | 0.131
AGCCAACA | -0.0935
AGAGCGAT | 0.0783
ATCTCAGG | -0.184
AGCCGGCA | -0.132

Sequence | PBM E-score
ATGATTTG | 0.193
CATGTTAG | -0.038
CCTACAAC | 0.0213
GCACGTCA | 0.0421
ATTTGTAG | -0.0294
GCCACACC | -0.174
ATCACGTA | 0.218
AACGGCTG | 0.0109
AAATTGGC | -0.0692
AAGCCACG | 0.124
AGCGCGAG | -0.21
CCATACAC | 0.017
TAATCCGA | -0.0108
CTTAAAAG | -0.0764
CGAGATAG | -0.0382
ACAAGATG | 0.0794
ATTCGCAG | 0.0177
ACAAGGAG | -0.205
AAGTTAGA | 0.0437
ACTATCTG | -0.119
AAGTGCAT | 0.0354
CCCTCCAA | -0.213
ACCAGAAA | 0.0237
AGGCTCAT | -0.0285
ACCTGTAA | 0.0555

Some of the entries above, reformatted:

| Sequence | PBM E-score |
| --- | --- |
| ATGATTTG | 0.193 |
| ATCACGTA | 0.218 |
| ACAAGATG | 0.0794 |
| ACCTGTAA | 0.0555 |

(list continues)

Sequence | PBM E-score
CCCAGTAA | 0.00346
TCGAAGAA | -0.154
ACAGAAAT | 0.00533
ACATCGAG | -0.0781
TTGTAAAA | -0.064
GCGTTAAC | 0.0377
CTTTATGC | 0.00634
CGGTAACA | 0.103
CCTAGATA | -0.0255
AATAGTCG | 0.0257
GCGAGCCC | -0.216
GCCCGTGA | -0.0396
CGTGACCA | 0.0961
GCCTAGCC | -0.218
AAGAGGCG | -0.117
AGAGCCAC | -0.236
AAGCACTT | -0.0368
CTGTAGGA | -0.267
AGCATTGA | 0.026
AGGGAGCA | -0.172
TTCGTAAA | 0.216
ACACAACT | -0.0651
AGCTCATA | 0.0925
GTGATCAA | 0.392
AGTGCGCG | -0.139

Sequence | PBM E-score
CCGCACGA | 0.376
ATAGCACG | 0.126
ATGTTACC | 0.0782
CTAATGAG | 0.0956
CAATAGTC | -0.0584
AAAACGTT | 0.126
ACCGGATA | -0.161
AAGGTATT | 0.165
CCCATGAC | 0.0292
GTGCGGGA | -0.0179
ACGCGCCT | -0.0785
CAAATAAA | 0.186
AAGCGGTG | -0.034
CCTCAAGC | -0.0869
GGCAGGCA | -0.252
GTGGACTA | 0.077
CCCCCTAG | -0.114
AACTGTTC | -0.0835
ACGCGCAG | -0.0955
GAAATCGC | -0.0161
CCACACTA | 0.0817
CCTATGTC | 0.0872
AGCCCCAA | -0.184
GATACCCC | 0.0295
ACTCATCT | -0.0475

5 entries from above, reformatted:
Sequence,PBM E-score
ACCGGATA,-0.161
AAGGTATT,0.165
CCCATGAC,0.0292
GTGCGGGA,-0.0179
ACGCGCCT,-0.0785

The results go on.

Sequence | PBM E-score
CTGGAGAA | -0.163
CAATTCGG | -0.00914
AATCCAGC | 0.00313
AAGTCGAT | -0.0117
CAGAAAAG | -0.106
AAATCTCC | -0.00978
CTGAATAC | -0.00099
TCATGCAA | -0.0503
AGCGATAC | 0.202
CAGATAGG | -0.0695
AACTCACT | -0.0717
CATTGGCA | 0.0719
AGTCTTGG | -0.0867
GGCCAAAC | -0.132
CGGCTAGC | 0.0226
TCCCCGCA | -0.022
GTCCGAGA | 0.162
AAGGGGAT | 0.0502
ATATTCGC | 0.127
CAAAGTTG | -0.0599
AAGAACAT | 0.157
CACATCGA | 0.0172
AAAGACCC | -0.0568
ATCAGCAA | 0.186
ATGCTTGA | 0.204

Sequence | PBM E-score
ACTGGAGA | -0.174
ATCACAAG | 0.0427
TCGATCCA | -0.00178
ATGCGCGA | 0.0935
CACGACAA | 0.25
CTCCCCTC | -0.276
AAGTACAA | 0.0278
ATCCGATA | 0.0815
GGGTATCA | 0.116
AGAGGACT | -0.354
AGGTTTAC | -0.133
CTCCCGGA | -0.117
AAGATGCG | -0.0486
GACGTGTA | 0.0729
AACACGAA | 0.205
CTGAGAAA | 0.047
CTCTTTTC | -0.0167
CTATGAAC | 0.0765
GAAGGCTA | -0.162
